# Assay results from the supplement of paper PMC8728848.
# This is one part of the list.
# B1: Ovorubin (Pomacea canaliculata), J7I2T6 (protein)
# chain: MFVATSLLLAIATLVVRASPHNYLIMDIEPPKSVSERDILNLLSPLQVKHSFRVTGSTRLLIVIRLDAQSYEKLDEITVPGKVEVIPAVNMADTMERCGVSWPRVELTDDNVTLFESESTLTDVTKEQLKAMLIGYGEHMSGLLQAHRFEYYQAAGATPHRHFVFVNSVPDEIEVFGREGVDIWGGPGEFVVKPQYVTRI
# Assays:
# Experiment in all cases: glycan array binding signal (z-score within array); higher = stronger binding
# Details in all cases: glycan notation: IUPAC condensed, linker removed
# [1] = target: GlcNAc(b1-4)GlcNAc(b1-4)GlcNAc(b1-4)GlcNAc(b1-4)GlcNAc
# In short: (§1)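 Columns mapping to the same glycan were averaged after glycan names were converted to IUPAC-condensed notation. The data come from 3228 arrays in the Consortium for Functional Glycomics database, limited to those with an available protein sequence. Binding is reported as a within-array Z-score averaged across arrays of one protein sequence and across linkers.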
# [2] = target: GlcNAc(b1-4)GlcNAc(b1-4)GlcNAc(b1-4)GlcNAc(b1-4)GlcNAc(b1-4)GlcNAc
# In short: as §1
# [3] = target: GlcNAc(b1-4)[GlcNAc(b1-6)]GalNAc
# In short: as §1
# [4] = target: GlcNAc(b1-6)Gal(b1-4)GlcNAc
# In short: as §1
# GlcNAc(b1-6)GalNAc = target: GlcNAc(b1-6)GalNAc
# In short: as §1
# [5] = target: GlcNAc6S(b1-3)Gal(b1-4)GlcNAc
# In short: as §1
# Kdn(a2-3)Gal(b1-3)GalNAc = target: Kdn(a2-3)Gal(b1-3)GalNAc
# In short: as §1
# Kdn(a2-3)Gal(b1-3)GlcNAc = target: Kdn(a2-3)Gal(b1-3)GlcNAc
# In short: as §1
# Kdn(a2-3)Gal(b1-4)Glc = target: Kdn(a2-3)Gal(b1-4)Glc
# In short: as §1
# Kdn(a2-3)Gal(b1-4)GlcNAc = target: Kdn(a2-3)Gal(b1-4)GlcNAc
# In short: as §1
# [6] = target: Kdn(a2-3)Gal(b1-4)[Fuc(a1-3)]GlcNAc
# In short: as §1
# Kdn(a2-6)Gal(b1-4)GlcNAc = target: Kdn(a2-6)Gal(b1-4)GlcNAc
# In short: as §1
# [7] = target: Man(a1-2)Man(a1-2)Man(a1-3)Man
# In short: as §1
# [8] = target: Man(a1-2)Man(a1-2)Man(a1-6)[Man(a1-3)]Man
# In short: as §1
# Man(a1-2)Man(a1-3)Man = target: Man(a1-2)Man(a1-3)Man
# In short: as §1
# [9] = target: Man(a1-2)Man(a1-3)[Man(a1-2)Man(a1-6)]Man
# In short: as §1
# [10] = target: Man(a1-2)Man(a1-3)[Man(a1-2)Man(a1-6)]Man(a1-6)[Man(a1-2)Man(a1-2)Man(a1-3)]Man
# In short: as §1
# [11] = target: Man(a1-2)Man(a1-3)[Man(a1-2)Man(a1-6)]Man(a1-6)[Man(a1-2)Man(a1-2)Man(a1-3)]Man(b1-4)GlcNAc(b1-4)GlcNAc
# In short: as §1
# [12] = target: Man(a1-2)Man(a1-3)[Man(a1-6)]Man(a1-6)[Man(a1-2)Man(a1-3)]Man(b1-4)GlcNAc(b1-4)GlcNAc
# In short: as §1
# [13] = target: Man(a1-2)Man(a1-6)[Man(a1-3)]Man(a1-6)[Man(a1-2)Man(a1-2)Man(a1-3)]Man
# In short: as §1
# [14] = target: Man(a1-2)Man(a1-6)[Man(a1-3)]Man(a1-6)[Man(a1-2)Man(a1-2)Man(a1-3)]Man(b1-4)GlcNAc(b1-4)GlcNAc
# In short: as §1
# Man(a1-3)[Man(a1-6)]Man = target: Man(a1-3)[Man(a1-6)]Man
# In short: as §1
# [15] = target: Man(a1-3)[Man(a1-6)]Man(a1-6)[Man(a1-2)Man(a1-3)]Man(b1-4)GlcNAc(b1-4)GlcNAc
# In short: as §1
# [16] = target: Man(a1-3)[Man(a1-6)]Man(a1-6)[Man(a1-3)]Man
# In short: as §1
# [17] = target: Man(a1-3)[Man(a1-6)]Man(a1-6)[Man(a1-3)]Man(b1-4)GlcNAc(b1-4)GlcNAc
# In short: as §1
# [18] = target: Man(a1-3)[Man(a1-6)]Man(b1-4)GlcNAc(b1-4)GlcNAc
# In short: as §1
# [19] = target: Man(a1-3)[Man(a1-6)]Man(b1-4)GlcNAc(b1-4)[Fuc(a1-6)]GlcNAc
# In short: as §1
# Man(a1-6)Man = target: Man(a1-6)Man
# In short: as §1
# Man(b1-4)GlcNAc = target: Man(b1-4)GlcNAc
# In short: as §1
# MurNAc(b1-4)GlcNAc = target: MurNAc(b1-4)GlcNAc
# In short: as §1
# Neu5Ac(a2-3)Gal = target: Neu5Ac(a2-3)Gal
# In short: as §1
# [20] = target: Neu5Ac(a2-3)Gal(b1-3)GalNAc
# In short: as §1
# [21] = target: Neu5Ac(a2-3)Gal(b1-3)GalNAc(b1-3)Gal(a1-4)Gal(b1-4)Glc
# In short: as §1
# [22] = target: Neu5Ac(a2-3)Gal(b1-3)GalNAc(b1-4)[Neu5Ac(a2-3)]Gal(b1-4)Glc
# In short: as §1
# [23] = target: Neu5Ac(a2-3)Gal(b1-3)GalNAc(b1-4)[Neu5Ac(a2-8)Neu5Ac(a2-3)]Gal(b1-4)Glc
# In short: as §1
# [24] = target: Neu5Ac(a2-3)Gal(b1-3)GalNAc6S
# In short: as §1
# [25] = target: Neu5Ac(a2-3)Gal(b1-3)GlcNAc
# In short: as §1
# [26] = target: Neu5Ac(a2-3)Gal(b1-3)GlcNAc(b1-2)Man
# In short: as §1
# [27] = target: Neu5Ac(a2-3)Gal(b1-3)GlcNAc(b1-2)Man(a1-3)[GlcNAc(b1-4)][Neu5Ac(a2-3)Gal(b1-3)GlcNAc(b1-2)Man(a1-6)]Man(b1-4)GlcNAc(b1-4)GlcNAc
# In short: as §1
# [28] = target: Neu5Ac(a2-3)Gal(b1-3)GlcNAc(b1-2)Man(a1-3)[Neu5Ac(a2-3)Gal(b1-3)GlcNAc(b1-2)Man(a1-6)]Man(b1-4)GlcNAc(b1-4)GlcNAc
# In short: as §1
# [29] = target: Neu5Ac(a2-3)Gal(b1-3)GlcNAc(b1-3)Gal(b1-3)GlcNAc
# In short: as §1
# [30] = target: Neu5Ac(a2-3)Gal(b1-3)GlcNAc(b1-3)Gal(b1-4)GlcNAc
# In short: as §1
# [31] = target: Neu5Ac(a2-3)Gal(b1-3)GlcNAc(b1-3)GalNAc
# In short: as §1
# [32] = target: Neu5Ac(a2-3)Gal(b1-3)GlcNAc(b1-4)Gal(b1-4)Glc
# In short: as §1
# [33] = target: Neu5Ac(a2-3)Gal(b1-3)GlcNAc(b1-6)GalNAc
# In short: as §1
binder,measurement,setting,value
B1,glycan array binding signal (z-score),[1],0.711
same,glycan array binding signal (z-score),[2],-0.236
same,glycan array binding signal (z-score),[3],-1.01
same,glycan array binding signal (z-score),[4],-0.075
same,glycan array binding signal (z-score),GlcNAc(b1-6)GalNAc,-0.372
same,glycan array binding signal (z-score),[5],-0.605
same,glycan array binding signal (z-score),Kdn(a2-3)Gal(b1-3)GalNAc,-0.484
same,glycan array binding signal (z-score),Kdn(a2-3)Gal(b1-3)GlcNAc,-1.13
same,glycan array binding signal (z-score),Kdn(a2-3)Gal(b1-4)Glc,-0.012
same,glycan array binding signal (z-score),Kdn(a2-3)Gal(b1-4)GlcNAc,-0.483
same,glycan array binding signal (z-score),[6],-0.422
same,glycan array binding signal (z-score),Kdn(a2-6)Gal(b1-4)GlcNAc,-0.773
same,glycan array binding signal (z-score),[7],-0.133
same,glycan array binding signal (z-score),[8],-0.491
same,glycan array binding signal (z-score),Man(a1-2)Man(a1-3)Man,0.255
same,glycan array binding signal (z-score),[9],-0.202
same,glycan array binding signal (z-score),[10],-0.482
same,glycan array binding signal (z-score),[11],-0.051
same,glycan array binding signal (z-score),[12],-0.828
same,glycan array binding signal (z-score),[13],-0.368
same,glycan array binding signal (z-score),[14],-0.082
same,glycan array binding signal (z-score),Man(a1-3)[Man(a1-6)]Man,-0.092
same,glycan array binding signal (z-score),[15],-0.9
same,glycan array binding signal (z-score),[16],-0.847
same,glycan array binding signal (z-score),[17],0.132
same,glycan array binding signal (z-score),[18],-0.292
same,glycan array binding signal (z-score),[19],-0.155
same,glycan array binding signal (z-score),Man(a1-6)Man,-0.373
same,glycan array binding signal (z-score),Man(b1-4)GlcNAc,-0.489
same,glycan array binding signal (z-score),MurNAc(b1-4)GlcNAc,-0.33
same,glycan array binding signal (z-score),Neu5Ac(a2-3)Gal,-0.761
same,glycan array binding signal (z-score),[20],-0.752
same,glycan array binding signal (z-score),[21],1.31
same,glycan array binding signal (z-score),[22],0.78
same,glycan array binding signal (z-score),[23],-0.294
same,glycan array binding signal (z-score),[24],-0.28
same,glycan array binding signal (z-score),[25],0.759
same,glycan array binding signal (z-score),[26],0.619
same,glycan array binding signal (z-score),[27],-0.978
same,glycan array binding signal (z-score),[28],0.486
same,glycan array binding signal (z-score),[29],-0.712
same,glycan array binding signal (z-score),[30],-0.697
same,glycan array binding signal (z-score),[31],0.142
same,glycan array binding signal (z-score),[32],-0.65
same,glycan array binding signal (z-score),[33],-0.145

# Three records drawn at random from those above:
binder,measurement,setting,value
B1,glycan array binding signal (z-score),[31],0.142
same,glycan array binding signal (z-score),[30],-0.697
same,glycan array binding signal (z-score),[7],-0.133
